Data: patent US20230192796A1
Results are given in words; binding and its absence hold for the method and conditions named. Some entries that bind do so weakly or less than the wild type.

Amino acid sequences for entries named in this document (tags omitted). A change or cut given only in a name is not applied to a line headed by its entry. Chains listed by the source or under a name are the forms on record and can include a tag or linker.
Human IL-10Rβ extracellular domain (20-220), biotinylated (Q08334, form named): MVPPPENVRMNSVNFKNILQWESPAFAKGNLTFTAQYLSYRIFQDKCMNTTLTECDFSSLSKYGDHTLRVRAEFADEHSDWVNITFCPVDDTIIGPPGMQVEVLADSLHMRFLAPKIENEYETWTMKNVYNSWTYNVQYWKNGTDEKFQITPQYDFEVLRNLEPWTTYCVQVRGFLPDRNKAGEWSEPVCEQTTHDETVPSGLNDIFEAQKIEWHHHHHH
UniProt P22301: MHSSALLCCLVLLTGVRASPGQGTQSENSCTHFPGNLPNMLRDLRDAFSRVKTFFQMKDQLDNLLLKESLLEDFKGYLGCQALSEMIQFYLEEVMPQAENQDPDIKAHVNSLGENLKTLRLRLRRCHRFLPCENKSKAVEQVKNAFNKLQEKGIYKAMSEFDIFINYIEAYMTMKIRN

Target: Human IL-10Rβ extracellular domain (20-220), biotinylated (human) (UniProt Q08334)
Experiment: yeast display; titration of SA-647-IL-10Rβ on yeast pre-bound with 500 nM unlabeled IL-10Rα; compared with WT monomeric IL-10

| binding | Substance |
| --- | --- |
| binds | Affinity matured IL-10 clone 5.1, displayed on yeast (from UniProt P22301 19-178) (ligand) |
| binds | Affinity matured IL-10 clone 5.2, displayed on yeast (from UniProt P22301 19-178) (ligand) |
| binds | Affinity matured IL-10 clone 5.3, displayed on yeast (from UniProt P22301 19-178) (ligand) |
